Data as given in PubChem BioAssay (EPA / NIEHS).
The inconclusive results got no clear call from the source; some entries with a clear call stand among them for comparison. For some assays here: Potencies beside an inconclusive call are fits to weak or partial responses and may not hold up. Calls of active or inactive are those of the source. The calls were made as follows: active = hit-call score of the fitted dose curve at least 0.9, where 1 is the maximum; inconclusive = response in the unintended direction; inactive = score below 0.9.

The chains behind the UniProt entries cited, without tags or fusion partners. Where a name states a change or a piece, a line headed by the entry shows the natural chain unless it says otherwise.
UniProt P21917, whole entry, looked up: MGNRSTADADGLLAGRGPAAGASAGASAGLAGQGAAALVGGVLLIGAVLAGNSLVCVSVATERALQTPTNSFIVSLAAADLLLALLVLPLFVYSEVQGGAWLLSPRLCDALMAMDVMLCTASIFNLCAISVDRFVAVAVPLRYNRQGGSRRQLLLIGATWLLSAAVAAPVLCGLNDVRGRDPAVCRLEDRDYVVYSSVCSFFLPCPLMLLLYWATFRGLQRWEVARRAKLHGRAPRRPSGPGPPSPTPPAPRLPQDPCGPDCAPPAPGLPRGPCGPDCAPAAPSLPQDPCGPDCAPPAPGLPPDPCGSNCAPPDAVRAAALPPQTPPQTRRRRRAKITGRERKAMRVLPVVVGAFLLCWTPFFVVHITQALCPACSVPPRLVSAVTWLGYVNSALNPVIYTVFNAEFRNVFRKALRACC
UniProt P35367, whole entry, looked up: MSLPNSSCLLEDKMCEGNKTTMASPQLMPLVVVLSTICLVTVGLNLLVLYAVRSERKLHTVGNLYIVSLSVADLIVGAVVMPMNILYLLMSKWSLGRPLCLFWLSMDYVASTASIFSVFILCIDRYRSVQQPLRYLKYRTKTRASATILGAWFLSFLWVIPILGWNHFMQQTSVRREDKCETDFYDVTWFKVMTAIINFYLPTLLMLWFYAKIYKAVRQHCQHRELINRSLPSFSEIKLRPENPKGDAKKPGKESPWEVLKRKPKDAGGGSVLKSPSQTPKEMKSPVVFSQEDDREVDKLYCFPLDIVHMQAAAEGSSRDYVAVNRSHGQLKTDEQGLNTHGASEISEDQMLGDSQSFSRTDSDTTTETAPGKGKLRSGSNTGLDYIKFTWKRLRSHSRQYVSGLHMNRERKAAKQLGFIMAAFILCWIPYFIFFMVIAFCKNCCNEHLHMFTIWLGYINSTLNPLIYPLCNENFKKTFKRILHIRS
UniProt P08172, whole entry, looked up: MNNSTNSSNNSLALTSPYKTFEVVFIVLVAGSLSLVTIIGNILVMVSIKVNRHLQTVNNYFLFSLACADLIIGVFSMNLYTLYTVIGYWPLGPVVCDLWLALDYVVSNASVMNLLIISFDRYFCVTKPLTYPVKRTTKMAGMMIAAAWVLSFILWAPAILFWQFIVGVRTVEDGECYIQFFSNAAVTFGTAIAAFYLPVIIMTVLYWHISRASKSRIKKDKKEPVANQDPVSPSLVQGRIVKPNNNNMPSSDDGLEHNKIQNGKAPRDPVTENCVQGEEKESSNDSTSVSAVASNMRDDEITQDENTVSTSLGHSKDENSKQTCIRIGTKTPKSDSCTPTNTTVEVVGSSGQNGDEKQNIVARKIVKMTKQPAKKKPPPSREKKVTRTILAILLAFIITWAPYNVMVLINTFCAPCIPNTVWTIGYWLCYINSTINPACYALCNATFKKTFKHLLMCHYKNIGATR
UniProt P11229: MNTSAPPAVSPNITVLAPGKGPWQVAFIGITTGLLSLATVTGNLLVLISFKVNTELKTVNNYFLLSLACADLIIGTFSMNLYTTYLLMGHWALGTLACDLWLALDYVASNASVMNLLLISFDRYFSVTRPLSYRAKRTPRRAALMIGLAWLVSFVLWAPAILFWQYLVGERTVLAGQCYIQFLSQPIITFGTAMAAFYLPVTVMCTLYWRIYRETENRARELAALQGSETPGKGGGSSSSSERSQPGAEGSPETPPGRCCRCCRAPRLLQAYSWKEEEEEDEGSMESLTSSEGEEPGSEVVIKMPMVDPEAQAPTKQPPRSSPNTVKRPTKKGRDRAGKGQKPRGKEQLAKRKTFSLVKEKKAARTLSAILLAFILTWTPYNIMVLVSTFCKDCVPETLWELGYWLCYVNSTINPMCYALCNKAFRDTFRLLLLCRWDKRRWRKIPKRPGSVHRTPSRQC

Key:
[1] = target: human Dopamine Receptor D4.4 (DRD4.4), DRD4 (gene 1815) (UniProt P21917); test: NVS_GPCR_hDRD4.4: NovaScreen (NVS) G Protein-Coupled Receptor Assay for human Dopamine Receptor D4.4 (DRD4.4) (AID 2283264)
Outline: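 Radioligand displacement on human DRD4.4 from CHO-derived membranes, 1 hour incubation, bound counts read by filtration and scintillation. Primary screen in duplicate at 25 uM; actives followed up in concentration series.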

[2] = target: human Histamine 1 Receptor (H1), HRH1 (gene 3269) (UniProt P35367); test: NVS_GPCR_hH1: NovaScreen (NVS) G Protein-Coupled Receptor Assay for human Histamine 1 Receptor (H1) (AID 2283268)
Experimental: NVS_GPCR_hH1 is a biochemical, single-readout assay that uses extracted gene-proteins in a cell-free assay. Measurements were taken 1 hour after chemical dosing in a 96-well plate.NVS_GPCR_hH1 is one of one assay component(s) measured or calculated from the NVS_GPCR_hH1 assay. It is designed to make measurements of radioligand binding, a form of binding reporter, as detected with scintillation counting signals by Filter-based radiodetection technology.Data from the assay component NVS_GPCR_hH1 was analyzed into 1 assay endpoint. This assay endpoint, NVS_GPCR_hH1, was analyzed in the positive analysis fitting direction relative to DMSO as the negative control and baseline of activity. […] Furthermore, this assay endpoint can be referred to as a primary readout, because the performed assay has only produced 1 assay endpoint. […]
Binding assays used specific radioligands (tritiated, iodinated) with non-radioactive competitive displacement ligands in agonist or antagonist protocols (as indicated) and various reference compounds and inhibitors to titrate specific binding to receptors and transporters. Most enzyme assays (CYPs, kinases, phosphatases, proteases, HDACs) used recombinant protein and specific substrates (fluorescence mostly, some colorimetric and radioactive) and inhibitors, followed by a biochemical separation of substrate and product. […]

[3] = target: Muscarinic acetylcholine receptor M2 (Homo sapiens) (UniProt P08172); test: NVS_GPCR_hM2: NovaScreen (NVS) G Protein-Coupled Receptor Assay for human Muscarinic, M2 Receptor (AID 2283273)
Outline: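 Radioligand displacement on human M2 receptor membranes from CHO cells, 1 h incubation, filtration with scintillation counting. Primary screen in duplicate at 25 uM; actives retested in concentration series; loss of signal fitted versus DMSO.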

[4] = target: Muscarinic acetylcholine receptor M1 (Homo sapiens) (UniProt P11229); test: NVS_GPCR_hM1: NovaScreen (NVS) G Protein-Coupled Receptor Assay for human Muscarinic, M1 Receptor (AID 2283270)
Outline: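 Cell-free radioligand displacement using membrane protein extracted from CHO cells, read by filter-based scintillation counting 1 h after dosing. Loss of bound signal fitted versus DMSO; primary screen single concentration 25 uM in duplicate, actives followed by concentration series.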

CCOC(=O)c1ccc(C2CCC(NC[C@H](O)COc3ccc(O)c(NS(C)(=O)=O)c3)CC2)cc1 (stereo partly drawn)
AC50 [1]: active: 11300 nM

CCOC(=O)CCC(=O)OCC
outcome [1]: inactive

COc1cc(C(=O)NC2CCN(C)CC2)ccc1Nc1ncc2c(n1)N(C1CCCC1)CC(F)(F)C(=O)N2C
AC50 [2]: active: 2740 nM

Cc1occc1C(=O)Nc1ccc(C(=O)N2CCC(F)(F)/C(=C\C(=O)N3CCC(N4CCCCC4)CC3)c3ccccc32)cc1
AC50 [2]: active: 148 nM

Cn1cnc2c1c(=O)[nH]c(=O)n2C
AC50 [3]: inconclusive: 313 nM

Cc1[nH]cnc1C[C@H]1CCc2c(C)c3ccccc3n2C1=O
AC50 [3]: inconclusive: 145 nM

COc1cc(S(=O)(=O)O)c(C)cc1N=Nc1c(O)ccc2cc(S(=O)(=O)O)ccc12
AC50 [4]: inconclusive: 138 nM

C=CCCCCCCCCCCCC
AC50 [4]: inconclusive: 298 nM
